Data reported in the supplement of paper PMC4862054.
Small differences around the control level are noise.

How the values were obtained:
Assay in all cases: normalised response (% of control), CellTox Green; higher = less cell death (100 = DMSO, 0 = benzethonium chloride kill control)
Conditions in all cases: incubation time: 72 h
BT-474 [1] = test system: BT-474
Method: (§1)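 DSRT, 72 h incubation, CellTox Green / CellTiter-Glo readout. Signal is normalised to DMSO and benzethonium chloride controls. Value is the normalised response at the lowest tested concentration.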

BT-549 [2] = test system: BT-549
Method: as §1

CAL-120 [3] = test system: CAL-120
Method: as §1

CAL-148 [4] = test system: CAL-148
Method: as §1

CAL-51 [5] = test system: CAL-51
Method: as §1

CAL-85-1 [6] = test system: CAL-85-1
Method: as §1

DU-4475 [7] = test system: DU-4475
Method: as §1

HCC1143 [8] = test system: HCC1143
Method: as §1

HCC1599 [9] = test system: HCC1599
Method: as §1

HCC1937 [10] = test system: HCC1937
Method: as §1

HDQ-P1 [11] = test system: HDQ-P1
Method: as §1

Hs578T [12] = test system: Hs578T
Method: as §1

MCF-10A [13] = test system: MCF-10A
Method: as §1

MDA-MB-231 [14] = test system: MDA-MB-231
Method: as §1

MDA-MB-453 [15] = test system: MDA-MB-453
Method: as §1

MDA-MB-468 [16] = test system: MDA-MB-468
Method: as §1

MFM-223 [17] = test system: MFM-223
Method: as §1

MDA-MB-436 [18] = test system: MDA-MB-436
Method: as §1

BT-474 [19] = test system: BT-474; remark: listed apart in the source
Method: (§2)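 DSRT, 72 h incubation, CellTox Green / CellTiter-Glo readout. Signal is normalised to DMSO and benzethonium chloride controls. Value is the normalised response at dose 2.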

BT-549 [20] = test system: BT-549; remark: listed apart in the source
Method: as §2

CAL-120 [21] = test system: CAL-120; remark: listed apart in the source
Method: as §2

CAL-148 [22] = test system: CAL-148; remark: listed apart in the source
Method: as §2

CAL-51 [23] = test system: CAL-51; remark: listed apart in the source
Method: as §2

CAL-85-1 [24] = test system: CAL-85-1; remark: listed apart in the source
Method: as §2

DU-4475 [25] = test system: DU-4475; remark: listed apart in the source
Method: as §2

HCC1143 [26] = test system: HCC1143; remark: listed apart in the source
Method: as §2

HCC1599 [27] = test system: HCC1599; remark: listed apart in the source
Method: as §2

HCC1937 [28] = test system: HCC1937; remark: listed apart in the source
Method: as §2

HDQ-P1 [29] = test system: HDQ-P1; remark: listed apart in the source
Method: as §2

Hs578T [30] = test system: Hs578T; remark: listed apart in the source
Method: as §2

MCF-10A [31] = test system: MCF-10A; remark: listed apart in the source
Method: as §2

MDA-MB-231 [32] = test system: MDA-MB-231; remark: listed apart in the source
Method: as §2

MDA-MB-436 [33] = test system: MDA-MB-436; remark: listed apart in the source
Method: as §2

MDA-MB-453 [34] = test system: MDA-MB-453; remark: listed apart in the source
Method: as §2

MDA-MB-468 [35] = test system: MDA-MB-468; remark: listed apart in the source
Method: as §2

MFM-223 [36] = test system: MFM-223; remark: listed apart in the source
Method: as §2

SMILES | normalised response (BT-474 [1]) | normalised response (BT-549 [2]) | normalised response (CAL-120 [3]) | normalised response (CAL-148 [4]) | normalised response (CAL-51 [5]) | normalised response (CAL-85-1 [6]) | normalised response (DU-4475 [7]) | normalised response (HCC1143 [8]) | normalised response (HCC1599 [9]) | normalised response (HCC1937 [10]) | normalised response (HDQ-P1 [11]) | normalised response (Hs578T [12]) | normalised response (MCF-10A [13]) | normalised response (MDA-MB-231 [14]) | normalised response (MDA-MB-453 [15]) | normalised response (MDA-MB-468 [16]) | normalised response (MFM-223 [17]) | normalised response (MDA-MB-436 [18]) | normalised response (BT-474 [19]) | normalised response (BT-549 [20]) | normalised response (CAL-120 [21]) | normalised response (CAL-148 [22]) | normalised response (CAL-51 [23]) | normalised response (CAL-85-1 [24]) | normalised response (DU-4475 [25]) | normalised response (HCC1143 [26]) | normalised response (HCC1599 [27]) | normalised response (HCC1937 [28]) | normalised response (HDQ-P1 [29]) | normalised response (Hs578T [30]) | normalised response (MCF-10A [31]) | normalised response (MDA-MB-231 [32]) | normalised response (MDA-MB-436 [33]) | normalised response (MDA-MB-453 [34]) | normalised response (MDA-MB-468 [35]) | normalised response (MFM-223 [36])
CCC/C=C/C=C/C(=O)O[C@H]1/C(=C/C(=O)OC)C[C@H]2C[C@H]([C@@H](C)O)OC(=O)C[C@H](O)C[C@@H]3C[C@H](OC(C)=O)C(C)(C)[C@](O)(C[C@@H]4C/C(=C/C(=O)OC)C[C@H](/C=C/C(C)(C)[C@]1(O)O2)O4)O3 [Bryostatin 1] (0.01 nM) | 107% | 95.7% | 101% | 107% | 123% | 109% | 105% | 119% | 109% | 104% | 89.7% | 89.5% | 89.2% | 100% | 110% | 90.7% | 104% | – | – | – | – | – | – | – | – | – | – | – | – | – | – | – | – | – | – | –
Cc1cc(Nc2nc(N[C@@H](C)c3ncc(F)cn3)ncc2Cl)[nH]n1 [AZD1480] (0.1 nM) | 76.8% | 107% | 96.3% | 100% | 108% | 99% | 95.4% | 124% | 99.7% | 95.6% | 99.4% | 94.4% | 104% | 82.5% | 101% | 108% | 104% | – | – | – | – | – | – | – | – | – | – | – | – | – | – | – | – | – | – | –
CCC1(c2ccc(N)cc2)CCC(=O)NC1=O (stereo unspecified) [Aminoglutethimide] (1 nM) | 101% | 106% | 94.7% | 86.5% | 123% | 104% | 99.6% | – | 103% | 76.4% | 102% | 105% | 107% | 101% | 92.9% | 106% | 102% | – | – | – | – | – | – | – | – | – | – | – | – | – | – | – | – | – | – | –
COc1cc(Nc2ncc(F)c(Nc3ccc4c(n3)NC(=O)C(C)(C)O4)n2)cc(OC)c1OC [Tamatinib] (1 nM) | 99.4% | 91.8% | 101% | 107% | 121% | 98.2% | 106% | 117% | 108% | 106% | 95.9% | 101% | 106% | 77.7% | 97.9% | 97.1% | 102% | – | – | – | – | – | – | – | – | – | – | – | – | – | – | – | – | – | – | –
O=C(Cc1ccc(-c2ccc(OCCN3CCOCC3)cc2)cn1)NCc1ccccc1 [KX2-391] (1 nM) | 99.1% | 93.4% | 99.2% | 104% | 119% | 97.5% | 105% | 123% | 115% | 92.5% | 98.9% | 97.8% | – | – | 108% | 81.5% | 92.6% | 98.4% | – | – | – | – | – | – | – | – | – | – | – | – | – | – | – | – | – | –
O=C1CCC(N2C(=O)c3ccccc3C2=O)C(=O)N1 (stereo unspecified) [Thalidomide] (1 nM) | 96.2% | 105% | 103% | 103% | 87% | 101% | 101% | 122% | 103% | 98.8% | 94% | 97.7% | 97% | – | 102% | 104% | 98.3% | 94.2% | – | – | – | – | – | – | – | – | – | – | – | – | – | – | – | – | – | –
COc1cc2c(cc1-c1c(C)noc1C)ncc1[nH]c(=O)n([C@H](C)c3ccccn3)c12 [I-BET151] (10 nM) | – | – | – | – | – | – | – | – | – | – | – | – | – | – | – | – | – | – | 102% | 89.6% | 98.5% | 109% | 85.2% | 96.3% | 97.1% | 50.3% | 96.3% | 115% | 119% | 118% | 108% | 93.5% | 94.1% | 98% | 90.7% | 103%
CO[C@H]1C[C@@H]2CC[C@@H](C)[C@@](O)(O2)C(=O)C(=O)N2CCCC[C@H]2C(=O)O[C@H]([C@H](C)C[C@@H]2CC[C@@H](O)[C@H](OC)C2)CC(=O)[C@H](C)/C=C(\C)[C@@H](O)[C@@H](OC)C(=O)[C@H](C)C[C@H](C)/C=C/C=C/C=C/1C [Sirolimus] (0.1 nM) | – | – | – | – | – | – | – | – | – | – | – | – | – | – | – | – | – | – | 103% | 99.9% | 97.8% | 110% | 103% | 98.3% | 98% | 78.6% | 94.3% | 73.6% | 101% | 133% | 85.7% | 114% | 92.1% | 93.5% | 120% | 66.1%
